From article doi:10.1101/2024.03.15.585069
Results are given in words; binding and its absence hold for the method and conditions named. In cells and extracts the contact can be indirect. Some entries that bind do so weakly or less than the wild type.

Experiments:
Test in all cases: split reporter
[1] = target: T1, nEYFP-CP2 (Arabidopsis thaliana) (UniProt P0DO23)
T1 sequence: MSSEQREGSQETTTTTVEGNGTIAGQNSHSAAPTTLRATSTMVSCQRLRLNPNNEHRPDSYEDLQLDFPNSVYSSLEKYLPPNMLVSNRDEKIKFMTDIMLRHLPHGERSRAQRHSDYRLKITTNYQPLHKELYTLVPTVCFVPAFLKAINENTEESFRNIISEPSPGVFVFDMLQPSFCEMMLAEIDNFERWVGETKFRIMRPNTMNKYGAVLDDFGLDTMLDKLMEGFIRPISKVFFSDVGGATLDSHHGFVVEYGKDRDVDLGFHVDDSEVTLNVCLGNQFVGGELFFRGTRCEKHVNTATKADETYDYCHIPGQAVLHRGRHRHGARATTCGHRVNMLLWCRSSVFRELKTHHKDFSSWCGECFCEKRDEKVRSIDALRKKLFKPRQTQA

nEYFP-UBP13 = target: T2, nEYFP-UBP13 (UniProt Q84WU2)
T2 sequence: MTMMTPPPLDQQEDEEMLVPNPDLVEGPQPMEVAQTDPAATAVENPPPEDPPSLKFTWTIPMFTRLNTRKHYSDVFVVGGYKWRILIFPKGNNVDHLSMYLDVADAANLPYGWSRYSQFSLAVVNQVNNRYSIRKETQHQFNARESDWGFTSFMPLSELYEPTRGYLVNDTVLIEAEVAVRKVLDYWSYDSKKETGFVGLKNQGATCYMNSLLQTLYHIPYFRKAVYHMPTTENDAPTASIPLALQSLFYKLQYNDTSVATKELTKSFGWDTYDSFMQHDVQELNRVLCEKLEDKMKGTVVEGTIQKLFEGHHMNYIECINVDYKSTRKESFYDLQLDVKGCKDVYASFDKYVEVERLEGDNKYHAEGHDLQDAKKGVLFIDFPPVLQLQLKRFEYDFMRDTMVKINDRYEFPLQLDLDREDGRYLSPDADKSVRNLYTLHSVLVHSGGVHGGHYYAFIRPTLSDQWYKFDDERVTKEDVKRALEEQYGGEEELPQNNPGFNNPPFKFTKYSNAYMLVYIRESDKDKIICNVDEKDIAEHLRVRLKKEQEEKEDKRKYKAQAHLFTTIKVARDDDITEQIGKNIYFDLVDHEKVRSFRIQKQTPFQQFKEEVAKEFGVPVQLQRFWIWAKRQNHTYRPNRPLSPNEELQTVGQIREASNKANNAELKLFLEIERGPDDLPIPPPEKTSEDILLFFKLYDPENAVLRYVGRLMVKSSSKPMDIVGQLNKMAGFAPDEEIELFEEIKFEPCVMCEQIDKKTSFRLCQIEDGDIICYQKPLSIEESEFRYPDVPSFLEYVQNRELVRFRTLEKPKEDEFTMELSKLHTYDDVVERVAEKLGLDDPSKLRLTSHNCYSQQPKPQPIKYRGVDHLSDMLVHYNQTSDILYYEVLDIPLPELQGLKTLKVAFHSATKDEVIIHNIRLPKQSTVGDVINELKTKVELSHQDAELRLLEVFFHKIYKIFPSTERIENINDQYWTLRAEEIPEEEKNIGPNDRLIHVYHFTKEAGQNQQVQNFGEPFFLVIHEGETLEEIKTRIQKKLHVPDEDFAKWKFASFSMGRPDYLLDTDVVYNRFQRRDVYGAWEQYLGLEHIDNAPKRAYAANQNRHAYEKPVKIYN

nEYFP-UBP12 = target: T3, nEYFP-UBP12 (UniProt Q9FPT1)
T3 sequence: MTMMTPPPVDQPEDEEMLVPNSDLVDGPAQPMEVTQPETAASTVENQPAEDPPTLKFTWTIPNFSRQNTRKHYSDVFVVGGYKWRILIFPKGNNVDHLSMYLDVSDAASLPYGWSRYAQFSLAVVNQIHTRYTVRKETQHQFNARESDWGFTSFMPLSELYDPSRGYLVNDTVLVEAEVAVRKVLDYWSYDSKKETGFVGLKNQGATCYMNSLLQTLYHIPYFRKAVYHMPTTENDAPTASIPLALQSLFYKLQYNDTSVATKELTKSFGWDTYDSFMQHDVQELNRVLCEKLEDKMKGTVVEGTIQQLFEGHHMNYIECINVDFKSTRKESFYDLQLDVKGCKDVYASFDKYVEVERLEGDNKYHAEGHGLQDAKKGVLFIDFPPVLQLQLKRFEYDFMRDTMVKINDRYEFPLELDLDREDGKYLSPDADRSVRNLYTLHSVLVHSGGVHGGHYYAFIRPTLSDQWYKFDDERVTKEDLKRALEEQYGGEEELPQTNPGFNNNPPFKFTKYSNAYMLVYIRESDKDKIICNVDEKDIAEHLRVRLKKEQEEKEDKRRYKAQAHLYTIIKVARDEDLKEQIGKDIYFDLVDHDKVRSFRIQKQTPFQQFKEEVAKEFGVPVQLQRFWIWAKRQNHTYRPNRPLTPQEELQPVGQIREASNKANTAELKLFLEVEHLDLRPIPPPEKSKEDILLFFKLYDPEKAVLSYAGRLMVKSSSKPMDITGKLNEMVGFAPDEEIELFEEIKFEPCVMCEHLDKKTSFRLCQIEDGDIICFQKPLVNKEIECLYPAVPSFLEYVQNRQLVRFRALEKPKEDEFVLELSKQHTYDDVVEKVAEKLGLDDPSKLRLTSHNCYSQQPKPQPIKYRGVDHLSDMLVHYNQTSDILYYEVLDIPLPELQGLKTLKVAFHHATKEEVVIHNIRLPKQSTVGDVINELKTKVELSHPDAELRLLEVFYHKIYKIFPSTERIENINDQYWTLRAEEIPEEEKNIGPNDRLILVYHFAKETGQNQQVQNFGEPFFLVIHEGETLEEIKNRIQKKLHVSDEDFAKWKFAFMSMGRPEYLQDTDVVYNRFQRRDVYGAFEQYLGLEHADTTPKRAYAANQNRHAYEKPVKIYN

Measured: binding

B1: cEYFP-LHP1 (protein, UniProt Q946J8 1-445)
chain: MKGASGAVKKKPQVLNEAGEAETAVETVGESRKISGDGGFGSDDGGGGGGGGSGESILREIGDDRPTEDGDEEEEEDEDEDDGGDEEDEEGEGEGGQEERPKLDEGFYEIEAIRRKRVRKGKVQYLIKWRGWPETANTWEPLENLQSIADVIDAFEGSLKPGKPGRKRKRKYAGPHSQMKKKQRLTSTSHDATEKSDSSTSLNNSSLPDIPDPLDLSGSSLLNRDVEAKNAYVSNQVEANSGSVGMARQVRLIDNEKEYDPTLNELRGPVNNSNGAGCSQGGGIGSEGDNVRPNGLLKVYPKELDKNSRFIGAKRRKSGSVKRFKQDGSTSNNHTAPTDQNLTPDLTTLDSFGRIARMGNEYPGVMENCNLSQKTKIEELDITKILKPMSFTASVSDNVQEVLVTFLALRSDGKEALVDNRFLKAHNPHLLIEFYEQHLKYNRTP
binds: all assays above
